# Data reported in ChEMBL document CHEMBL3046649, “Fungitoxic and Phytotoxic Activities of Cinnamic Acid Esters and Amides” (2000).
# What was measured:
# Assay type in all cases: functional
# [1] = system: Brassica rapa subsp. chinensis; test: whole plant or invertebrate; conditions: 72 h, read-out: GI
# [2] = system: Brassica rapa subsp. chinensis; test: whole plant or invertebrate; conditions: 72 h, read-out: GI; remark: listed apart in the source
# Pythium = test: microbe, parasite or virus in culture; conditions: read-out: GI;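 further: agar dilution test on Pythium sp., inhibition of mycelial growth scored after 4–5 days of incubation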
# Athelia rolfsii = test: microbe, parasite or virus in culture; conditions: Agroathelia rolfsii, read-out: GI;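 further: mycelial growth inhibition of the fungus, determined with an agar dilution method and read 4–5 days after treatment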
structure (smiles),measurement,setting,value
O=C(/C=C/c1ccccc1)Nc1ccccc1O [N-(2-HYDROXYPHENYL)CINNAMAMIDE],inhibition of growth at 100 ppm,[1],0%
same,inhibition of growth at 100 ppm,[2],0%
same,inhibition of growth at 100 ppm,Pythium,24%
same,inhibition of growth at 100 ppm,Athelia rolfsii,12%
